Results are given in words; binding and its absence hold for the method and conditions named. Some results given as binding are weak or reduced against the parent protein; the word gives no strength.
Columns and labels:
[1] = target: T1, TIM-1 peptide A) … (human); test: ELISA on coated peptides
T1 sequence (peptide): PMPLPRQNHEPVAT

Chains of the proteins cited; added tags and fusions are not shown. Residues count along the entry.
UniProt Q96D42, residues 21-364: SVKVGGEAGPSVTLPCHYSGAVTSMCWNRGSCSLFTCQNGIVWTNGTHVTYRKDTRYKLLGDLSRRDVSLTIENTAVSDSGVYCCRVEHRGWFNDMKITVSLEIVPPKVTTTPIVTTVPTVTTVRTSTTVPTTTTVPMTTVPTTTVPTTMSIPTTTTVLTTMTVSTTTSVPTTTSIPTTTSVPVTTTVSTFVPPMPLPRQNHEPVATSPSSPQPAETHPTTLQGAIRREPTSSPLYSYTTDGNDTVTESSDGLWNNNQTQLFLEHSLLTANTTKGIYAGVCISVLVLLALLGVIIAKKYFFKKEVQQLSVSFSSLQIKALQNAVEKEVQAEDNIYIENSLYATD

[2] = target: T2, TIM-1 peptide B) … (human); test: ELISA on coated peptides
T2 sequence (peptide): PMPLPRQNHEPV

[3] = target: T3, TIM-1 peptide C) … (human); test: ELISA on coated peptides
T3 sequence (peptide): PMPLPRQNHE

[4] = target: T4, TIM-1 peptide F) … (human); test: ELISA on coated peptides
T4 sequence (peptide): PLPRQNHEPVAT

[5] = target: T3, TIM-1 peptide C) … (human); test: peptide ELISA, reactivity grade
[6] = target: T5, synthetic peptide SEQ ID NO:104 (printed PLPRQNHE) (human); test: peptide ELISA, reactivity grade
T5 sequence (peptide): PLPRQNHE

[7] = target: T6, synthetic peptide SEQ ID NO:105 (printed LPRQNHE) (human); test: peptide ELISA, reactivity grade
T6 sequence (peptide): LPRQNHE

[8] = target: T7, synthetic peptide … (SEQ ID NO:100); test: peptide ELISA, reactivity grade
T7 sequence (peptide): PMPLPAQNHE

[9] = target: T8, synthetic peptide … (SEQ ID NO:101); test: peptide ELISA, reactivity grade
T8 sequence (peptide): PMPLPRANHE

[10] = target: T9, synthetic peptide … (SEQ ID NO:103); test: peptide ELISA, reactivity grade
T9 sequence (peptide): PMPLPRQNAE

[11] = target: T10, synthetic peptide … (SEQ ID NO:98); test: peptide ELISA, reactivity grade
T10 sequence (peptide): PMPAPRQNHE

[12] = target: T11, minimal epitope peptide LPRQNH (SEQ ID NO:97) (human); test: peptide ELISA on shortened peptides
T11 sequence (peptide): LPRQNH

[13] = target: TIM-1 antigen, cell membrane-bound (on ACHN, CAKI-2, CAKI-1 renal cancer cells and polarized/activated human CD4+ T cells) (human) (UniProt Q96D42); test: FACS on ACHN and CAKI-2 renal cancer cells
[14] = target: T1, TIM-1 peptide A) … (human); test: ELISA on coated overlapping TIM-1 peptides

Measured: binding

B1: anti-TIM-1 mAb 2.70 (antibody, V domains shown)
VH: QVQLVESGGGVVQPGRSLRLSCAASGFIFSRYGMHWVRQAPGKGLKWVAVIWYDGSNKLYADSVKGRFTISRDNSKNTLYLQMNSLRAEDTAVYYCARDYYDNSRHHWGFDYWGQGTLVTVSS
VL: DIVMTQTPLSLPVTPGEPASISCRSSRSLLDSDDGNTYLDWYLQKPGQSPQLLIYTLSYRASGVPDRFSGSGSGTDFTLKISRVEAEDVGVYYCMQRVEFPITFGQGTRLEIKR
binds: all assays above

Source: US20050084449A1
